The results in this text go back to US12310967B2, “Compositions and methods of treatment for neurological disorders comprising motor neuron diseases” (Gliapharm SA, priority 2017, dated 2025).

SMILES strings stand for the structures.

As a reminder, the EC50 is the midpoint of the concentration-response curve. A low value points to an effect from little substance. In general, IC50 refers to the point on the concentration scale where inhibition reaches its midpoint. The low end stands for inhibition by little substance, the high end for a need for much substance.

The subject of experiment [1] is primary astrocytes. The experiment can be described thus: Extracellular lactate quantification. The class given is cell-based. The settings on record: Mus musculus, Astrocyte, 1.5 h; Prestwick hits, 0-100 μM, 90 min. On the procedure: Secretion of L-lactate was determined in the extracellular medium of 96-well plated astrocytes after 90 min stimulation (at 37° C., in 5% CO2/95% air conditions) with the drug of interest. The stimulation medium was composed of D5030 medium (completed with D-glucose 5 mM and 44 mM sodium bicarbonate) for 90 min in concentrations ranging from 0 to 100 μM.
Briefly, 200 μl of a Glycine (Sigma)-Semicarbazide (Acros) 0.2M pH 10 buffer containing 3 mM NAD (Roche) and LDH 14 U/ml (Roche) was added to each well of a 96-well plate containing 30 μl aliquots complemented with 20 μl fresh complete D5030 medium. Samples were incubated at 37° C. for 1 h. After samples cooled down at room temperature, the fluorescence intensity (340 nm excitation/450 nm emission) that represents the amount of NADH produced was measured, and lactate concentration values were determined from a standard curve of L-lactate.
Levels of lactate secreted by astrocytes were measured in the extracellular medium at 90 min after stimulation with 20 hits (molecules) from the Prestwick library (10 μM each), as shown in FIG. 1. n=6-10; Ctrl pos. is CCCP (2 uM). Statistical analysis consisted in ANOVA followed by Fisher LSD post-hoc test for pair-wise comparisons.
Levels of lactate secreted by astrocytes were measured in the extracellular medium at 90 min after stimulation with hits (molecules) from the CDC54K library. […]

For experiment [2], the system named is primary astrocytes. In words: MTT viability assay. The class given is cell-based. The settings on record: Mus musculus, Astrocyte; Prestwick hits, 0-200 uM, 24 h. On the procedure:
For cell toxicity determination, astrocytes in 96-well plates were stimulated 24 h (37° C. 5% CO2/95% air) with a gradient ranging from 0.1 to 200 μM of tested compounds. After stimulation, 5 mg/ml thiazol blue tetrazolium bromide (MTT, Sigma-Aldrich) in warm D5030 complete medium was added to each well, and cells were incubated for 4 h at 37° C. (5% CO2). The medium was then removed by aspiration, and the reaction was stopped by the addition of 50 μl DMSO per well.
The amount of reduced MTT (formazan) solubilized in DMSO was then determined spectrophotometrically using absorbance at 570 nm (Safire 2; Tecan).
MTT cellular viability assay was performed on astrocytes exposed to Preswtick Hits (concentrations ranging from 0 uM to 200 uM).
MTT cellular viability assay was performed on astrocytes exposed to CDC54K Hits (concentrations ranging from 0 uM to 200 uM).
For orientation: Tetrazolium dyes change colour on reduction, which living cells bring about.

In the experiment on primary astrocytes [1], `Clc1ccc2c(c1)CCc1cccnc1C2=C1CCNCC1` [Desloratadine] displayed a concentration giving a half-maximal response (EC50) of 2.1 µM. Further, the concentration for half-maximal inhibition (IC50) in the experiment on primary astrocytes [2] is 11 µM.
